Results: publication PMC9909992
Results are given in words; binding and its absence hold for the method and conditions named. In cells and extracts the contact can be indirect. Some binding calls cover weakened binding; strength is not graded here.

Target: T1, CD73 (ecto-5'-nucleotidase, NT5E) (rat (endogenous in HSC-T6)) (UniProt P21588)
T1 sequence: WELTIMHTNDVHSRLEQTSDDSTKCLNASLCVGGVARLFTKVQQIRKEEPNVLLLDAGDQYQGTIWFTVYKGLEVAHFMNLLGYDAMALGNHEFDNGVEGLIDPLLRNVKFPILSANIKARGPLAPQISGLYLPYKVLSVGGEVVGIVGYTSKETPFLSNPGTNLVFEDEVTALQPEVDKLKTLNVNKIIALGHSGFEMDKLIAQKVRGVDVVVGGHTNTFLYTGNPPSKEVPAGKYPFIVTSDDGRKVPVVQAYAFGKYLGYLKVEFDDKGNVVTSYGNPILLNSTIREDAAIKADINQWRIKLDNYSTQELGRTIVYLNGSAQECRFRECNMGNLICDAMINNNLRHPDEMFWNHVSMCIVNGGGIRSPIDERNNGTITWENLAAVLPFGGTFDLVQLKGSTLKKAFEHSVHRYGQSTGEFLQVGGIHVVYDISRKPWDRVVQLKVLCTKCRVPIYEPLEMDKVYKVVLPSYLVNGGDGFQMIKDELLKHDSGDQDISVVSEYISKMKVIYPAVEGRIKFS
Assay: co-IP; HSC-T6 cell lysate incubated with anti-CD73 antibodies for 2 h, protein A/G agarose beads overnight at 4 °C, immune complexes blotted for AURKA

- binding: binds
B1: Aurora kinase A (AURKA) (enzyme, UniProt P59241 1-397)
chain: MDRCKENCVSRPVKSTVPFGPKRVLVTEQIPSQHPGSASSGQAQRVLCPSNSQRVPPQAQKPVAGQKPVLKQLPAASGPRPASRLSNPQKSEQPQPAASGNNSEKEQTSIQKTEDSKKRQWTLEDFDIGRPLGKGKFGNVYLAREKQSKFILALKVLFKVQLEKAGVEHQLRREVEIQSHLRHPNILRLYGYFHDATRVYLILEYAPLGTVYRELQKLSKFDEQRTATYITELANALSYCHSKRVIHRDIKPENLLLGSNGELKIADFGWSVHAPSSRRTTLCGTLDYQPPEMIEGRMHDEKVDLWSLGVLCYEFLVGMPPFEAHTYQETYRRISRVEFTFPDFVTEGARDLISRLLKHNSSQRLTLAEVLEHPWIKANSSKPPTGHNSKEATSKSS
